Consider 42 sequences from publication PMC7819943, “Rice protein-binding microarrays: a tool to detect cis-acting elements near promoter regions in rice”.

The chains behind the UniProt entries cited, without tags or fusion partners.
UniProt Q0JBA9, entry or part of it: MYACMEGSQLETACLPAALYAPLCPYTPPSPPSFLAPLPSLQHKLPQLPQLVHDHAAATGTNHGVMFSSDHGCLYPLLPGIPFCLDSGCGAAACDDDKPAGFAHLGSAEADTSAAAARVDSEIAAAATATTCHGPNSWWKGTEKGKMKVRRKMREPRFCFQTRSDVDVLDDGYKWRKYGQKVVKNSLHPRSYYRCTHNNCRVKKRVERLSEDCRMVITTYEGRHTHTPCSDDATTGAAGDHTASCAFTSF

This is one part of the list.

In this test the target is OsWRKY34 (Oryza sativa, UniProt Q0JBA9 1-250). Briefly: protein-binding microarray (RPBM); PBS, 2% BSA, 51.3 ng/ul salmon testes DNA, 50 uM zinc acetate, 200 nM TF, 25 C, 1 h; high values mean tight binding. The note with it: protein: recombinant; tags: N-terminal polyhistidine and DsRed monomer fusion (pET32a); label: CyDye5-dUTP incorporated in the synthesized complementary strand; 3' TTTTT single-stranded linker to array surface; dsDNA, one strand shown. In short, it runs like this:
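Using Ni–NTA, transcription factors fused N-terminally to polyhistidine and DsRed were purified after expression in E. coli BL21-CodonPlus. These were incubated at 200 nM with a blocked, double-stranded custom Agilent array for 1 h at 25 °C in a buffer containing 50 µM zinc acetate, and the array was washed. The binding signal is per-feature fluorescence intensity (arbitrary units) on an Axon 4000B scanner.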
“CCCACCGCGCTCTCGCTCTGCCACCGCCATTGCGCCACCGCGGAGTCACCTAGTGCAG”: the binding signal was 9330 fluorescence intensity (a.u.).
With “GTCCAACTCTGGTCCAACGCTGTGAAAAGCCTGACCTCACCGGAGTCACCTAGTGCAG” the figure was 9160 fluorescence intensity (a.u.); with “ATGGAGATAATATTCTCTTTTTTGACCGGCTCATCTATCTCGGAGTCACCTAGTGCAG”, 10800 fluorescence intensity (a.u.); with “CATGTGTGGTGAGCATATTTGTTTGTACTGTTGTATTTTACGGAGTCACCTAGTGCAG”, 9560 fluorescence intensity (a.u.).
Consider “ACAAAATTTTTATATGTTTCAGAGGTTGATTTTTTTGTTTCGGAGTCACCTAGTGCAG”, for which the binding signal is 8890 fluorescence intensity (a.u.).
With “ATTTGGTCTGTTTATTTCAGTTTGCGTGCCAGAAGATTTCCGGAGTCACCTAGTGCAG” the figure was 11200 fluorescence intensity (a.u.).
On to “AGTTTCCATATCCAATGTTTGACCGTCCATCTTATTTAGACGGAGTCACCTAGTGCAG”, for which the binding signal was 10900 fluorescence intensity (a.u.).
With “ACACACACACATCTCCATCTCCACATCTCCATTTCCATTTCGGAGTCACCTAGTGCAG” the figure was 8310 fluorescence intensity (a.u.).
As to “CGTCCTTGCCGCCGCCATGGCGTGCAGGCCGGCCATGTGCCGGAGTCACCTAGTGCAG”, the binding signal is 8180 fluorescence intensity (a.u.).
With “AATCTGTAATTTTGTTTTTATTATTACACTACATTTAATACGGAGTCACCTAGTGCAG” the figure was 9120 fluorescence intensity (a.u.); with “ACCGGTGGCTTTGTTTGGTTCCACGGTCTTCAGGTTGGGACGGAGTCACCTAGTGCAG”, 8130 fluorescence intensity (a.u.).
“GTCCTACTTTTGCCGCCCTTATGCTTTTTAATTAGTTCTTCGGAGTCACCTAGTGCAG”: the binding signal is 9490 fluorescence intensity (a.u.).
Regarding “TCGAGGGACGAACGACAGACTTTCTTTTCATTTGTTTCTTCGGAGTCACCTAGTGCAG”, the binding signal was 9770 fluorescence intensity (a.u.).
As to “ACTAAGCTAAGGTTTACCACAACCATCTCGTTTGTTGATTCGGAGTCACCTAGTGCAG”, the binding signal is 8540 fluorescence intensity (a.u.).
As for “ACTTATTTCGACTTTGTAACGGCAAATTCAATACTGCGCACGGAGTCACCTAGTGCAG”, the binding signal was 8290 fluorescence intensity (a.u.).
On to “CCCCACTCTATTACCCGCCCTTTTCTGCTCCGCGCCATCTCGGAGTCACCTAGTGCAG”, for which the binding signal was 8180 fluorescence intensity (a.u.).
Consider “CGTGTGCTTTTTTTTCATCTTTTTCGCTTTAAATTTGTTCCGGAGTCACCTAGTGCAG”, for which the binding signal is 11100 fluorescence intensity (a.u.).
“ATAATTTTCCTTGCTTTCACCATTGCTCTCAAATCTGGCTCGGAGTCACCTAGTGCAG”: the binding signal is 9380 fluorescence intensity (a.u.).
“ACCAGTCAACGGTCAAAGTTTCAAACCTCTATATAGTTTCCGGAGTCACCTAGTGCAG”: the binding signal is 9520 fluorescence intensity (a.u.).
Consider “TCTCCTTCGTATACGCAATCGGTGTCTCGATCCATATTCCCGGAGTCACCTAGTGCAG”, for which the binding signal is 9580 fluorescence intensity (a.u.).
Under “TATTCACTTTCATATTTATCATATAGCTAAAAATTTTTACCGGAGTCACCTAGTGCAG” stands 8300 fluorescence intensity (a.u.).
For the sequence “CACAGGTTTTGAAGTTGGGGAAGGTATTATACCCGATGTGCGGAGTCACCTAGTGCAG”, the binding signal was 8660 fluorescence intensity (a.u.).
With “GCCGCTTGCCTTTTCTTCTTTTTTTCATTTCTCTATTTACCGGAGTCACCTAGTGCAG” the figure was 10400 fluorescence intensity (a.u.).
Take “TCACATCCCAGGCTCGGACCAAATCTCAACTCCTGCTAATCGGAGTCACCTAGTGCAG”: the binding signal was 10400 fluorescence intensity (a.u.).
With “GCGCACCTGATGAATCTGCCCTGCGCCAATCGCTCGTGCTCGGAGTCACCTAGTGCAG”, the binding signal was 8460 fluorescence intensity (a.u.).
For the sequence “GATTAACCAATCTTTTATCATATTTATTGGTGTATTTATACGGAGTCACCTAGTGCAG”, the binding signal was 8950 fluorescence intensity (a.u.).
Regarding “CAACTTCTGTACCAATATTTTCTTCCCAACCAATCAAAACCGGAGTCACCTAGTGCAG”, the binding signal was 8660 fluorescence intensity (a.u.).
As to “GACCTTACCTCTAGCTGAGCGGGCTACTCTCGCGTCGTCTCGGAGTCACCTAGTGCAG”, the binding signal is 8100 fluorescence intensity (a.u.).
As to “GTTGCCGCCACATTAAATTGCTTCTCTTGATCTCAAGCGTCGGAGTCACCTAGTGCAG”, the binding signal is 8670 fluorescence intensity (a.u.).
With “ACGATCTCTCCTTGTTTTTTACTCCTCCTCAGATAATGTTCGGAGTCACCTAGTGCAG” the figure was 8610 fluorescence intensity (a.u.); with “CATCCATCTCCATCAACTGATCAGCACACAGCCACATTGTCGGAGTCACCTAGTGCAG”, 8250 fluorescence intensity (a.u.); with “GAGTAAAGTGTATTGTTGGTCTCTAAATTTGTTCGTCCGTCGGAGTCACCTAGTGCAG”, 9450 fluorescence intensity (a.u.).
Under “TGTCTATTTCATTAAACCTCGTCCTTTCTTTCATTCCGGACGGAGTCACCTAGTGCAG” stands 8140 fluorescence intensity (a.u.); under “TTGGCCAGCCTTGGGGATGTGGTTGTGGCTGGCTAGATTTCGGAGTCACCTAGTGCAG”, 8770 fluorescence intensity (a.u.); under “CTCGTCTCTCCTCACTCCACTCGACTCCTCACTCATCCTACGGAGTCACCTAGTGCAG”, 8270 fluorescence intensity (a.u.).
As to “TTAGTTTCCTCTTGTTGATCAAACGACATATTCGCCGTGTCGGAGTCACCTAGTGCAG”, the binding signal was 10100 fluorescence intensity (a.u.).
Regarding “AAAATATCTTTACTTATTACAACGACTGACATTTTTCATACGGAGTCACCTAGTGCAG”, the binding signal was 8580 fluorescence intensity (a.u.).
Turning to “ATTCCATCCCCGAGTGACAATGCAATCAGTTACAAGTTACCGGAGTCACCTAGTGCAG”, the binding signal was 8250 fluorescence intensity (a.u.).
As to “CAAATTTTTTCGGCGCTATAATATTTCTGTAAATATTAAACGGAGTCACCTAGTGCAG”, the binding signal was 8140 fluorescence intensity (a.u.).
As to “CTGGCCTATATTCATTCTATTCATAATTATAATTGCCATCCGGAGTCACCTAGTGCAG”, the binding signal was 8930 fluorescence intensity (a.u.).
For “CCCCAGCTTCACTGTTCACACACATCAATGCATCACCAGCCGGAGTCACCTAGTGCAG”, the binding signal is 9570 fluorescence intensity (a.u.).
With “GTTGTTGCAGTTCCTACACGTACCTAGTATGTTTATTTGACGGAGTCACCTAGTGCAG”, the binding signal is 8050 fluorescence intensity (a.u.).
